From article PMC5988326 come the findings set out here.

This assay concerns the target soluble recombinant intra-melanosomal domain of human tyrosinase (residues 19-469) (human) (UniProt P14679). The assay can be described thus: atomic force microscopy; hTyrCtr deposited on APS-modified mica, rinsed, dried, imaged in ambient air in tapping mode; particle volume and height distributions (N = 383); both purified.

Results are given in words; binding and its absence hold for the method and conditions named.

B1: soluble recombinant intra-melanosomal domain of human tyrosinase (residues 19-469) (domain or fragment, UniProt P14679 19-469)
chain: HFPRACVSSKNLMEKECCPPWSGDRSPCGQLSGRGSCQNILLSNAPLGPQFPFTGVDDRESWPSVFYNRTCQCSGNFMGFNCGNCKFGFWGPNCTERRLLVRRNIFDLSAPEKDKFFAYLTLAKHTISSDYVIPIGTYGQMKNGSTPMFNDINIYDLFVWMHYYVSMDALLGGSEIWRDIDFAHEAPAFLPWHRLFLLRWEQEIQKLTGDENFTIPYWDWRDAEKCDICTDEYMGGQHPTNPNLLSPASFFSSWQIVCSRLEEYNSHQSLCNGTPEGPLRRNPGNHDKSRTPRLPSSADVEFCLSLTQYESGSMDKAANFSFRNTLEGFASPLTGIADASQSSMHNALHIYMNGTMSQVQGSANDPIFLLHHAFVDSIFEQWLRRHRPLQEVYPEANAPIGHNRESYMVPFIPLYRNGDFFISSKDLGYDYSYLQDSDPDSFQDYIKSYLE
In the case of B1, the binding result is “no binding”.
